# Counter-ions that a name gives are not always drawn. ± gives the uncertainty stated by the source. The list shows a part of the results. Baselines shift from plate to plate; read single values as rough.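 A heat-shock-induced fluorescent stripe was set in larval rod outer segments at 6 dpf. Shedding distance ran from stripe to outer segment tip, measured by confocal stacks in about three fish per compound. Controls: 0.2% DMSO vehicle. Flagged compounds showed ≥20% change from same-week control, p < 0.001 (Dunnett test on mixed-effects models).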
# Columns and labels:
# [1] = system: Danio rerio larva rod photoreceptor outer segment; assay: rod outer segment growth distance Dg, difference from same-week DMSO control mean; higher = more outer segment growth; details: 20 µM; treatment time: 4 days (6-10 dpf)
# [2] = system: Danio rerio larva rod photoreceptor outer segment; assay: rod outer segment shedding distance Ds, difference from same-week DMSO control mean; higher = less outer segment shedding; details: 20 µM; treatment time: 4 days (6-10 dpf)
smiles,measurement,setting,value
COc1ccc(-c2oc3c(CC=C(C)C)c(O[C@@H]4O[C@H](CO)[C@@H](O)[C@H](O)[C@H]4O)cc(O)c3c(=O)c2O[C@@H]2O[C@@H](C)[C@H](O)[C@@H](O)[C@H]2O)cc1 [Icariin],rod outer segment growth distance Dg,[1],1.1 ± 0.43 um
same,rod outer segment shedding distance Ds,[2],0.42 ± 0.32 um
CNC(=O)c1c(F)cccc1Nc1nc(Nc2cc3c(cc2OC)CCN3C(=O)CN(C)C)nc2[nH]ccc12,rod outer segment growth distance Dg,[1],-1.71 ± 0.24 um
same,rod outer segment shedding distance Ds,[2],-0.11 ± 0.19 um
Cc1ccc(C(=O)Cn2c3c(sc2=N)CCCC3)cc1 [Pifithrin-α (PFTα)],rod outer segment growth distance Dg,[1],-3.04 ± 0.63 um
same,rod outer segment shedding distance Ds,[2],-0.91 ± 0.52 um
COc1nc(N)nc2c1ncn2[C@@H]1O[C@H](CO)[C@@H](O)[C@@H]1O [Nelarabine],rod outer segment growth distance Dg,[1],0.34 ± 0.2 um
same,rod outer segment shedding distance Ds,[2],-0.16 ± 0.23 um
c1ccc(-c2nn3c(c2-c2ccnc4cc(OCCN5CCOCC5)ccc24)CCC3)nc1,rod outer segment growth distance Dg,[1],-0.25 ± 0.14 um
same,rod outer segment shedding distance Ds,[2],0 ± 0.12 um
C[C@@H]1CC(=O)NN=C1c1ccc(NN=C(C#N)C#N)cc1 [Levosimendan],rod outer segment growth distance Dg,[1],-0.2 ± 0.25 um
same,rod outer segment shedding distance Ds,[2],0.63 ± 0.27 um
CN(C)/N=N/c1[nH]cnc1C(N)=O [Dacarbazine],rod outer segment growth distance Dg,[1],0.04 ± 0.32 um
same,rod outer segment shedding distance Ds,[2],-1.27 ± 0.34 um
COc1cc2nc(N3CCN(C(=O)C4COc5ccccc5O4)CC3)nc(N)c2cc1OC (stereo not given) [Doxazosin Mesylate],rod outer segment growth distance Dg,[1],-0.21 ± 0.27 um
same,rod outer segment shedding distance Ds,[2],-0.03 ± 0.27 um
C[C@@H]1C[C@H]2[C@@H]3CCC4=CC(=O)C=C[C@]4(C)[C@@]3(F)[C@@H](O)C[C@]2(C)[C@@]1(O)C(=O)CO [Dexamethasone (DHAP)],rod outer segment growth distance Dg,[1],0.61 ± 0.15 um
same,rod outer segment shedding distance Ds,[2],0.36 ± 0.15 um
O=C1c2ccccc2C(=O)C1c1ccccc1 [Phenindione],rod outer segment growth distance Dg,[1],0.33 ± 0.24 um
same,rod outer segment shedding distance Ds,[2],-0.49 ± 0.28 um
Cn1cc(-c2[nH]c3cc(NC(=O)[C@H](N)C4CCCCC4)cc4c3c2C=NNC4=O)cn1,rod outer segment growth distance Dg,[1],-0.77 ± 0.2 um
same,rod outer segment shedding distance Ds,[2],0.01 ± 0.14 um
C[C@@H]1CN(c2c(F)c(N)c3c(=O)c(C(=O)O)cn(C4CC4)c3c2F)C[C@H](C)N1 [Sparfloxacin],rod outer segment growth distance Dg,[1],0.89 ± 0.28 um
same,rod outer segment shedding distance Ds,[2],-0.63 ± 0.28 um
Cc1csc(-c2nnc(Nc3ccc(Oc4ncccc4-c4ccnc(N)n4)cc3)c3ccccc23)c1,rod outer segment growth distance Dg,[1],-1.36 ± 0.3 um
same,rod outer segment shedding distance Ds,[2],-0.4 ± 0.21 um
CO[C@H]1O[C@@H]2O[C@@]3(C)CC[C@H]4[C@H](C)CC[C@@H]([C@H]1C)[C@@]24OO3 [Artemether],rod outer segment growth distance Dg,[1],-0.31 ± 0.19 um
same,rod outer segment shedding distance Ds,[2],0.45 ± 0.36 um
Nc1ccn([C@@H]2CS[C@H](CO)O2)c(=O)n1 [Lamivudine],rod outer segment growth distance Dg,[1],-0.26 ± 0.28 um
same,rod outer segment shedding distance Ds,[2],-0.27 ± 0.15 um
CCOC(=O)c1ccc(N2NC(=O)C(=Cc3ccc([N+](=O)[O-])o3)C2=O)cc1,rod outer segment growth distance Dg,[1],-0.87 ± 0.2 um
same,rod outer segment shedding distance Ds,[2],-0.5 ± 0.29 um
Cc1cccc(Nc2ccncc2S(=O)(=O)NC(=O)NC(C)C)c1 [Torsemide],rod outer segment growth distance Dg,[1],0.44 ± 0.29 um
same,rod outer segment shedding distance Ds,[2],-0.48 ± 0.12 um
C[C@]12C=CC(=O)C=C1CC[C@@H]1[C@@H]2[C@@H](O)C[C@@]2(C)[C@H]1CC[C@]2(O)C(=O)CO [Prednisolone],rod outer segment growth distance Dg,[1],-0.92 ± 0.24 um
same,rod outer segment shedding distance Ds,[2],-0.04 ± 0.2 um
O=c1[nH]c(=O)n(C2CCCO2)cc1F (stereo not given),rod outer segment growth distance Dg,[1],1.71 ± 0.17 um
same,rod outer segment shedding distance Ds,[2],0.13 ± 0.17 um
CS(=O)(=O)CCNCc1ccc(-c2ccc3ncnc(Nc4ccc(OCc5cccc(F)c5)c(Cl)c4)c3c2)o1,rod outer segment growth distance Dg,[1],-0.15 ± 0.19 um
same,rod outer segment shedding distance Ds,[2],0.41 ± 0.24 um
Cc1nnc(C(C)C)n1C1C[C@H]2CC[C@@H](C1)N2CC[C@H](NC(=O)C1CCC(F)(F)CC1)c1ccccc1 (stereo in doubt) [Maraviroc],rod outer segment growth distance Dg,[1],-0.75 ± 0.25 um
same,rod outer segment shedding distance Ds,[2],-0.42 ± 0.27 um
CC(C)(CO)[C@@H](O)C(=O)NCCC(=O)O [D-Pantothenic acid],rod outer segment growth distance Dg,[1],0.87 ± 0.24 um
same,rod outer segment shedding distance Ds,[2],0.37 ± 0.28 um
N[C@@]1(C(=O)O)CS(=O)(=O)[C@H]2[C@H](C(=O)O)[C@H]21,rod outer segment growth distance Dg,[1],0.08 ± 0.14 um
same,rod outer segment shedding distance Ds,[2],-0.27 ± 0.13 um
CC(=O)NC[C@H]1CN(c2ccc(N3CCOCC3)c(F)c2)C(=O)O1 [Linezolid],rod outer segment growth distance Dg,[1],0.08 ± 0.19 um
same,rod outer segment shedding distance Ds,[2],0.2 ± 0.21 um
CC(C)N(CCCNC(=O)Nc1ccc(C(C)(C)C)cc1)C[C@H]1O[C@@H](n2cc(Br)c3c(N)ncnc32)[C@H](O)[C@@H]1O,rod outer segment growth distance Dg,[1],-0.7 ± 0.22 um
same,rod outer segment shedding distance Ds,[2],-0.46 ± 0.15 um
N#C/C(=C\c1ccc(O)c(O)c1)C(=O)NCc1ccccc1 [AG-490 (Tyrphostin B42)],rod outer segment growth distance Dg,[1],-0.97 ± 0.17 um
same,rod outer segment shedding distance Ds,[2],-0.46 ± 0.18 um
CS(=O)(=O)c1ccc(C2=C(c3ccccc3)C(=O)OC2)cc1 [Rofecoxib],rod outer segment growth distance Dg,[1],1.07 ± 0.15 um
same,rod outer segment shedding distance Ds,[2],0.13 ± 0.14 um
COc1cccc2c1C(=O)c1c(O)c3c(c(O)c1C2=O)C[C@@](O)(C(=O)CO)C[C@@H]3O[C@H]1C[C@H](N)[C@@H](O)[C@H](C)O1 [Epirubicin HCl],rod outer segment growth distance Dg,[1],-0.59 ± 0.19 um
same,rod outer segment shedding distance Ds,[2],-0.6 ± 0.21 um
CNC[C@H](O)c1ccc(O)c(O)c1 [Epinephrine HCl],rod outer segment growth distance Dg,[1],1.04 ± 0.15 um
same,rod outer segment shedding distance Ds,[2],0.23 ± 0.11 um
"Cc1[nH]c(/C=C2\C(=O)Nc3ccccc32)c(C)c1CCC(=O)O [TSU-68 (SU6668, Orantinib)]",rod outer segment growth distance Dg,[1],-0.96 ± 0.18 um
same,rod outer segment shedding distance Ds,[2],0.07 ± 0.17 um

# For reference, part of the list above:
smiles,measurement,setting,value
c1ccc(-c2nn3c(c2-c2ccnc4cc(OCCN5CCOCC5)ccc24)CCC3)nc1,rod outer segment shedding distance Ds,[2],0 ± 0.12 um
C[C@@H]1CC(=O)NN=C1c1ccc(NN=C(C#N)C#N)cc1 [Levosimendan],rod outer segment growth distance Dg,[1],-0.2 ± 0.25 um
same,rod outer segment shedding distance Ds,[2],0.63 ± 0.27 um
CN(C)/N=N/c1[nH]cnc1C(N)=O [Dacarbazine],rod outer segment growth distance Dg,[1],0.04 ± 0.32 um
same,rod outer segment shedding distance Ds,[2],-1.27 ± 0.34 um

# Source: the supplement of paper PMC6143611
